The source of these data is article PMC4801207, “Characterisation of Signalling by the Endogenous GPER1 (GPR30) Receptor in an Embryonic Mouse Hippocampal Cell Line (mHippoE-18)” (PLoS ONE, 2016).

Where a name gives a salt, the structure may show the parent alone.

In general, EC50 refers to the concentration giving half of the maximal effect.

For this experiment, the target named is T1, GPER1 (GPR30) (Mus musculus, UniProt Q8BMP4).
T1 construct: full-length endogenous receptor, native in mHippoE-18 immortalized embryonic mouse hippocampal cell line (CELLutions Biosystems); cells also express moderate ERalpha and ERbeta
T1 sequence (Q8BMP4 1-375): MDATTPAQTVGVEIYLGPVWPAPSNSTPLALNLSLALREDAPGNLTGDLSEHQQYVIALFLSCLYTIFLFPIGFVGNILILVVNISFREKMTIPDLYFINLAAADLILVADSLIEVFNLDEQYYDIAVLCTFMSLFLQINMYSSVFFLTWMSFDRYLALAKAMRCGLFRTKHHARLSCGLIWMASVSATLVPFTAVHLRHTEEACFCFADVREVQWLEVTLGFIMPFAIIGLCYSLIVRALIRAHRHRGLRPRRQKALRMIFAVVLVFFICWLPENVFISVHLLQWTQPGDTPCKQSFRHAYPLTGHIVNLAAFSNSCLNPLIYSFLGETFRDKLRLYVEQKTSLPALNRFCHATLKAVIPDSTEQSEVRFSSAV
Kind of experiment: cAMP accumulation, radiometric PKA binding assay, mHippoE-18 cells. Type of experiment: cell-based. As to conditions: agonist; potentiation of 10 μM forskolin-stimulated cAMP, 100 μM IBMX, 20 min; endogenous receptor, no antagonist. A general note: Changes in cAMP serve as a functional read-out for many G protein-coupled receptors.

In the case of `CC/C(=C(\c1ccccc1)c1ccc(OCCN(C)C)cc1)c1ccccc1` [Tamoxifen, (2)-2-[4-(1,2-Diphenyl-1-butenyl)phenoxy]-N,N-dimethylethanamine citrate], the EC50 was 0.64 nM.
